# From PubChem BioAssay AID504594 (Broad Institute, 2011)
# The campaign covered roughly 2,000 compounds. Fewer than 10 were called active.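 Rule for the calls: active = growth inhibition of at least 75% in every replicate, which also brings the mean inhibition to 75% or more; inconclusive = mean inhibition 75% or more but some replicate under 75%; inactive = the rest.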 The list shows a part of the results.
# Experiment: growth inhibition of PfHsp90-dependent yeast, primary screen, antimalarial PfHsp90 inhibitor project, S. cerevisiae, BacTiter-Glo luminescence (AID 504594);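 note: 0% = DMSO neutral control wells and 100% = 20 µM radicicol control wells; higher value means stronger growth inhibition because the sign is flipped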
# Conditions: S. cerevisiae expressing PfHsp90, BacTiter-Glo growth, 48 h; at 9.4 µM; active compounds read high
row,Structure (SMILES),growth inhibition
1,COc1cc(/C=C(\C#N)C(=O)N2CCc3ccccc32)ccc1O,inactive: -16%
2,Cc1ccccc1C(OCCN(C)C)c1ccccc1 (stereo unspecified),inactive: 9.44%
3,O=C1[C@@H]2CSCN2C(=O)CN1Cc1ccc(F)cc1,inactive: -1.67%
4,COc1cc(C(=O)Nc2ccc(N(C)C)cc2)c([N+](=O)[O-])cc1OC,inactive: 6.43%
5,C=C(C)C(=O)Nc1ccc(NC(C)C)cc1,inactive: 1.87%
6,C#C[C@]1(O)CC[C@H]2[C@@H]3CCC4=C(CCC(=O)C4)[C@H]3CC[C@@]21C,inactive: -5.22%
7,CC(C)(C)NCC(O)c1cc(O)cc(O)c1 (stereo unspecified),inactive: -6.86%
8,COc1ccc(Cc2nc(-c3ccc(Br)cc3)no2)cc1,inactive: -25.2%
9,CCc1oc2ccccc2c1C(=O)c1cc(Br)c(O)c(Br)c1,inactive: 31.9%
10,CC(C)NC(=O)c1ccc(C(C)C)cc1,inactive: -3.19%
11,O=C1C2C3C=CC(C4CC34)C2C(=O)N1/N=C/c1ccc(-c2ccc([N+](=O)[O-])cc2)o1 (stereo unspecified),inactive: 22.9%
12,c1ccc(Nc2cccc3c(Nc4ccccc4)cccc23)cc1,inactive: 13.8%
13,CC(C)(C)NCC(O)COc1cccc2c1C[C@H](O)[C@H](O)C2 (stereo partly specified),inactive: -3.05%
14,COCCc1ccc(OCC(O)CNC(C)C)cc1 (stereo unspecified),inactive: 12.3%
15,O=C1CN(O)C=C2N=c3ccccc3=C2N1c1ccc([N+](=O)[O-])cc1,inactive: 9.89%
16,CC(=O)NC(C(=O)NCC(N)=O)C(C)C (stereo unspecified),inactive: 4.26%
17,CC(C)Cc1ccc(C(C)C(=O)O)cc1 (stereo unspecified),inactive: -4.69%
18,CC(C)Oc1cccc(C(=O)N2CCCC2)c1,inactive: -0.92%
19,C[N+](C)(C)CCOP(=O)([O-])OC[C@H](O)CO,inactive: 1.98%
20,O=S(=O)(CCc1nc2ccccc2[nH]1)c1ccc(Cl)cc1,inactive: -3.99%
21,CN(C)C(=O)CCCCCCCCC(=O)N(C)C,inactive: 24%
22,CC(=O)NC(Cc1c[nH]c2ccccc12)C(=O)N/N=C/c1ccccc1 (stereo unspecified),inactive: 13.4%
23,Cc1nc(NCc2ccco2)c(C#N)c2c1COC(C)(C)C2,inactive: 15.9%
24,COc1ccc(-c2nc(NC(C)=O)sc2-c2ccc(OC)cc2)cc1,inactive: -7.91%

row,Structure (SMILES),growth inhibition
1,CCOC(=O)C(=Cc1ccccc1OC)C(=O)OCC,inactive: -1.25%
2,COc1cc(C2Nc3ccccc3NC3=C2C(=O)CC(c2ccc(OC)c(OC)c2)C3)ccc1O (stereo unspecified),inactive: -2.33%
3,Cc1ccccc1-c1coc2cc(O)ccc2c1=O,inactive: 4.28%
4,COc1ccc(C(=O)Nc2ccc(OC)c([N+](=O)[O-])c2)cc1Br,inactive: -4.48%
5,Fc1ccccc1CNCCC(Cc1ccccc1)c1ccc2c(c1)OCO2 (stereo unspecified),inactive: -1.57%
6,CCC1CCc2c(sc(NC(=O)c3cccnc3)c2C(N)=O)C1 (stereo unspecified),inactive: 1.79%
7,COc1cc(C(=O)CCN2CCC(c3ccccc3)C2)cc(OC)c1OC (stereo unspecified),inactive: 2.23%
8,Cn1c([N+](=O)[O-])cnc1COC(N)=O,inactive: 0.181%
9,Cc1ccc2nc3c(cc(C(=O)NCC4CCCO4)c(=N)n3CCCOC(C)C)c(=O)n2c1 (stereo unspecified),inactive: 4.47%
10,Cc1coc2c1c(C)cc1oc(=O)c(Cc3ccccc3)c(C)c12,inactive: 2.68%
11,Cc1cc(C)c2c(CCl)cc(=O)oc2c1,inactive: -4.42%
12,C=C1C2(C(=O)Nc3ccc(SC(F)F)cc3)CCC(C2)C1(C)C (stereo unspecified),inactive: -17.6%
13,CC[N+]1(CC)CC2=Cc3ccccc3CC2C1 (stereo unspecified),inactive: -5.09%
14,CCNC(=O)C(Cc1ccccc1)NC(=O)OCc1ccccc1 (stereo unspecified),inactive: -8.56%
15,O=C1OC(=O)C2C1[C@@H]1CC[C@H]2O1 (stereo partly specified),inactive: -14%
16,COc1ccc2c(CCNC(=O)c3ccc([N+](=O)[O-])cc3)c[nH]c2c1,inactive: 6.57%
17,Cc1cccc(Oc2coc3cc(OC(=O)c4cncc(Br)c4)ccc3c2=O)c1,inactive: -0.933%
18,COc1ccc2c(c1)CC[C@@H]1[C@@H]2CC[C@]2(C)C(=O)CC[C@@H]12,inactive: -5.47%
19,OC(CCN1CCCCC1)(c1ccccc1)C1CCCCC1 (stereo unspecified),inactive: -3.01%
20,O=C(CN1C(=O)C2CCc3[nH]c4ccccc4c3C2C1=O)N1CCCC1 (stereo unspecified),inactive: -10.5%
21,CCOC(=O)c1cc2c(nc1N)CC(C)(CC)OC2 (stereo unspecified),inactive: -2.94%
22,Nc1cc(-c2ccncc2)c[nH]c1=O,inactive: -1.29%
23,Cc1cccc(C2=N/C(=C\c3cccnc3)C(=O)O2)c1,inactive: 10.1%
24,COc1ccc(C2C(C(=O)c3ccco3)=C(O)C(=O)N2CC2CCCO2)cc1 (stereo unspecified),inactive: 7.74%

row,Structure (SMILES),growth inhibition
1,CS(=O)c1ccccc1O (stereo unspecified),inactive: 14.9%
2,COC(=O)c1ccc(COc2ccc3c(C)c(C)c(=O)oc3c2C)o1,inactive: -0.273%
3,CCCC(=O)Nc1ccccc1NC(C)=O,inactive: -6.63%
4,COc1ccc(CNC(=O)c2cc3c(=O)n4ccccc4nc3n(Cc3cccnc3)c2=N)cc1,inactive: -25.2%
5,OCCOCCN1CCN(C(c2ccccc2)c2ccc(Cl)cc2)CC1 (stereo unspecified),inactive: 1.21%
6,C[C@]12CCC(=O)C[C@@H]1CC[C@@H]1[C@@H]2CC[C@]2(C)C=CC[C@@H]12,inactive: 8.79%
7,COc1ccc(OC)c(NC2=C(Cl)C(=O)N(Cc3ccccc3)C2=O)c1,inactive: -7.45%
8,COc1ccc(CNC(=O)C2CCCN2C)cc1OC (stereo unspecified),inactive: -16.4%
9,COc1ccccc1Oc1c(C)oc2c(CN3CCN(CCO)CC3)c(O)ccc2c1=O,inactive: 3.84%
10,COc1ccccc1N=CC1=C(O)CC(c2ccccc2)CC1=O (stereo unspecified),inactive: 5.83%
11,CCOC(=O)[C@H](CCc1ccccc1)N[C@@H](C)C(=O)N1CCC[C@H]1C(=O)O,inactive: -1.47%
12,O=C(Nc1ccc(N2CCOCC2)cc1)c1ccc(-c2ccccc2[N+](=O)[O-])o1,inactive: -30.5%
13,C[C@]12CC[C@@H]3c4ccc(O)cc4CC[C@H]3[C@@H]1C[C@@H](O)[C@@H]2O[C@@H]1O[C@H](C(=O)O)[C@@H](O)[C@H](O)[C@H]1O,inactive: -0.654%
14,Cc1ccc2c(c1)C1(C(=O)N2)N2CCCC2C(C(=O)c2ccc3ccccc3c2)C12C(=O)Nc1ccccc12 (stereo unspecified),inactive: -4.22%
15,CC(C)=CCC/C(C)=C/CC/C(C)=C/CC/C(C)=C/CC1=C(C)C(=O)c2ccccc2C1=O,inactive: -2.7%
16,CCC(=O)Nc1ccc(C(=O)N2CCN(C(=O)c3ccco3)CC2)cc1,inactive: -0.0205%
17,COC(=O)c1ccc(OCCCCN2CC(C)OC(C)C2)cc1 (stereo unspecified),inactive: 23.6%
18,Cc1ccc2c(c1)C1OCCC1C1N2C(=O)C2C(C(=O)O)C3C=CC21O3 (stereo unspecified),inactive: -2.86%
19,O=C(Nc1ccc(F)c([N+](=O)[O-])c1)c1ccc2c(c1)OCCO2,inactive: -4.38%
20,CC(C)NS(=O)(=O)c1ccc(OCC(=O)Nc2cccc(F)c2)cc1,inactive: 4.62%
21,CCOC(=O)C1(Cc2cccc(Cl)c2)CCCN(C2CCN(C(C)=O)CC2)C1 (stereo unspecified),inactive: -10.8%
22,COC(=O)c1cc(-c2ccc(C)o2)nc2ccccc12,inactive: -1.73%
23,CN(C)CC/C=C1\c2ccccc2COc2ccccc21,inactive: 1.89%
24,CC1(C)c2ccccc2N2CC(=O)NC21/C=C/c1ccco1 (stereo unspecified),inactive: -0.842%

row,Structure (SMILES),growth inhibition
1,CC(C)CCc1noc(CN2CCC(CCN3CCCC3=O)CC2)n1,inactive: 4.25%
2,Cc1oc2c(C)c3oc(=O)c4c(c3cc2c1C)CCCC4,inactive: 5.48%
3,CCCCC(=O)O[C@]1(C(=O)CO)CC[C@H]2[C@@H]3CCC4=CC(=O)CC[C@]4(C)[C@H]3[C@@H](O)C[C@@]21C,inactive: 2.16%
4,CCc1cccc2c3c([nH]c12)C(CC)(CC(=O)O)OCC3 (stereo unspecified),inactive: 0.132%
5,COc1ccccc1C(O)c1nccn1C (stereo unspecified),inactive: -25%
6,COc1ccc2c(c1)[N+](C)(C)C(C)(C)C=C2C,inactive: -3.15%
7,C#CCN1C(=O)C(O)(c2c(C)[nH]c3ccccc23)c2ccccc21 (stereo unspecified),inactive: 3.95%
8,CN1[C@@H](CC(=O)c2ccccc2)CCC[C@H]1C[C@H](O)c1ccccc1,inactive: -6.4%
9,c1ccc2[nH]c(-c3cscn3)nc2c1,inactive: -6.85%
10,CCC(C)NCCOCCOc1ccc(Cl)cc1Br (stereo unspecified),inactive: 15.6%
11,COc1cc(NC(=S)NN2CCN(C)CC2)cc(OC)c1OC,inactive: -13.7%
12,CC1=NN(C(=O)c2ccc(Br)cc2)C(O)(c2ccccc2)C1 (stereo unspecified),inactive: -4.64%
13,CC12CC(c3ccccc3O1)C(C(=O)N1CCOCC1)C(=O)N2 (stereo unspecified),inactive: -11.3%
14,O=C(c1ccc(Cl)cc1)C1CCCN(Cc2ccc(Oc3ncccn3)cc2)C1 (stereo unspecified),inactive: -7.65%
15,O=C(OCCNC(=O)c1ccc2ccccc2n1)c1ccc(F)cc1,inactive: -10%
16,CC(NC(=O)c1ccc(OC2CCN(Cc3ccccn3)CC2)cc1)c1ccccc1 (stereo unspecified),inactive: -1.57%
17,COc1ccc(C)cc1S(=O)(=O)Nc1ccc(F)cc1,inactive: 1.39%
18,O=C(OCCN1CCCC1)C1(c2ccccc2)CCCC1,inactive: -2.1%
19,CC(C)=CCCC(C)CN1CCC(N2CCC(C(=O)N3CCCC3)CC2)CC1 (stereo unspecified),inactive: -1.55%
20,COC(=O)c1ccc(NC(=O)C23CCC(C)(C(=O)O2)C3(C)C)cc1 (stereo unspecified),inactive: 9.07%
21,C[C@]12CC[C@@H]3c4ccc(O)cc4CC[C@H]3[C@@H]1CCC2=O,inactive: 0.229%
22,OC(C#CCN1CCCC1)(c1ccccc1)c1cccnc1 (stereo unspecified),inactive: -0.115%
23,CN=C1c2cc3cc(OC)ccc3n2CCN1C,inactive: 2.8%
24,Cc1cccc(CN2CCN(C(c3ccccc3)c3ccc(Cl)cc3)CC2)c1 (stereo unspecified),inactive: -15.4%

# Reprinted at random: six entries already listed
row,Structure (SMILES),growth inhibition
15,O=C(OCCNC(=O)c1ccc2ccccc2n1)c1ccc(F)cc1,inactive: -10%
23,Cc1cccc(C2=N/C(=C\c3cccnc3)C(=O)O2)c1,inactive: 10.1%
24,COc1ccc(C2C(C(=O)c3ccco3)=C(O)C(=O)N2CC2CCCO2)cc1 (stereo unspecified),inactive: 7.74%
7,CC(C)(C)NCC(O)c1cc(O)cc(O)c1 (stereo unspecified),inactive: -6.86%
20,O=C(CN1C(=O)C2CCc3[nH]c4ccccc4c3C2C1=O)N1CCCC1 (stereo unspecified),inactive: -10.5%
21,C[C@]12CC[C@@H]3c4ccc(O)cc4CC[C@H]3[C@@H]1CCC2=O,inactive: 0.229%
